{"sequences": {"note": "The chains behind the UniProt entries cited, without tags or fusion partners.", "UniProt P40763": "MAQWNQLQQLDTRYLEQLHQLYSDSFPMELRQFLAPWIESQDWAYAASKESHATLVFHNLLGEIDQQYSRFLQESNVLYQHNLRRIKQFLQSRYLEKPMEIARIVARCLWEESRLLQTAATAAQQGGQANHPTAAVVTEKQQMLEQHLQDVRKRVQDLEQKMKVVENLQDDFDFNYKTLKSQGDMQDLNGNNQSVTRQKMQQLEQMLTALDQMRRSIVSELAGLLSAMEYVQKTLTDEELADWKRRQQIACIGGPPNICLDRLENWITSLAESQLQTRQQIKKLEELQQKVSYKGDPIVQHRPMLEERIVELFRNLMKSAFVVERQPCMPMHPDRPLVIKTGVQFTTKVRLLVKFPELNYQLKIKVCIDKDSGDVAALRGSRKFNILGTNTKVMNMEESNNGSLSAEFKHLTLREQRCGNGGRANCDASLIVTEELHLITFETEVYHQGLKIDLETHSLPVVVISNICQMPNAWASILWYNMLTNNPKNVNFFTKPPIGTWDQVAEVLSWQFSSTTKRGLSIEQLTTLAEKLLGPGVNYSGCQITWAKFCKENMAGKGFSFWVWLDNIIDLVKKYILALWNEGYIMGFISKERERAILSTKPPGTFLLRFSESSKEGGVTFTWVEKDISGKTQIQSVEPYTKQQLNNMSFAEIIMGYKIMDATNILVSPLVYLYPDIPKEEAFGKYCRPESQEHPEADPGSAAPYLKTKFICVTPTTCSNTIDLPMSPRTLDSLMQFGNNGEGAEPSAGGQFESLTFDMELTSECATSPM", "UniProt Q12778": "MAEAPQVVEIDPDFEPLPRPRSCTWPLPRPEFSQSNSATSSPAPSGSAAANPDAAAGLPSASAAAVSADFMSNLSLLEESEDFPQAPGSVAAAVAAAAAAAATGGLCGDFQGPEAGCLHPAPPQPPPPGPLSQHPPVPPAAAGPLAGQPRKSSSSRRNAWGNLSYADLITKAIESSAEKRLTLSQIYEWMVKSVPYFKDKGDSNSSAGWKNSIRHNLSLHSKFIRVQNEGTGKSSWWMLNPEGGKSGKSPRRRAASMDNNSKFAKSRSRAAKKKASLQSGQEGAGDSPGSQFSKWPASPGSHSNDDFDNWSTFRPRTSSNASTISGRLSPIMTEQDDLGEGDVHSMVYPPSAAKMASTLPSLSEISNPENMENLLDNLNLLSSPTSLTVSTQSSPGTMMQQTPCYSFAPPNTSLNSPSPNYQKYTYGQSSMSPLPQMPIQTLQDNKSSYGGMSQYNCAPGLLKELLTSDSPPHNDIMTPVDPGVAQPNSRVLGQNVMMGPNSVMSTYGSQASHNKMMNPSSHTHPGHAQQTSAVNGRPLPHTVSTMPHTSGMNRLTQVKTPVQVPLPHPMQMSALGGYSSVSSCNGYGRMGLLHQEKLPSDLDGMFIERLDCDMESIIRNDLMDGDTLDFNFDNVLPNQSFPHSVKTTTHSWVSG"}, "source": "paper PMC9589051", "target": "signal transducer and activator of transcription 3 (STAT3) (human (endogenous in HaCaT)) (UniProt P40763)", "experiment": "co-IP; HaCaT cell lysate (mild IP lysis solution) incubated with FOXO1 or STAT3 antibodies or control IgG and protein A agarose overnight at 4°C; the interacting protein detected by western blotting", "note": "Results are given in words; binding and its absence hold for the method and conditions named. In cells and extracts the contact can be indirect. Some binding calls cover weakened binding; strength is not graded here.", "data": [{"substance": "forkhead box protein O1 (FOXO1) (from UniProt Q12778 1-655)", "values": [{"measurement": "binding", "result": "binds"}]}]}
